# Measurements published in US20220119511A1, “COMPOSITIONS AND METHODS FOR TREATMENT OF DIABETES, OBESITY, HYPER-CHOLESTEROLEMIA, AND ATHEROSCLEROSIS BY INHIBITION OF SAM68” (The UAB Research Foundation, priority 2020, published 2022).
# Some of these results come from one statement about several compounds together. Residues, ends and D or L forms follow the SMILES beside them. *: point of attachment. Cbz = O=C(OCc1ccccc1)*
# Test system: CRTC2
# Assay: CRTC2 protein levels in primary hepatocytes treated with proteasome or autophagy inhibitors (Western blot)
# Format: cell-based, mouse
# Details: up to 16 h (MG132, BZM) or up to 8 h (bafilomycin)
# Protocol: FIGS. 7A-7J show Sam68 binds CRTC2 and inhibits CRTC2 ubiquitination and proteosomal degradation. In FIG. 7A, WT and Sam68^−/− mice were treated with glucagon (30 μg/kg) or PBS for 10 min; then, nuclear and cytoplasmic proteins were isolated from the liver tissue, and Sam68 protein expression was evaluated via Western blot. In FIG. 7B, CRTC2 was immunoprecipitated from WT and Sam68^−/− primary hepatocytes, and then CRTC2, Sam68, and CREB protein was detected in the precipitates via immunoblot. In FIG. 7C, 293T cells were co-transfected with plasmids coding for HA-tagged Sam68 and Flag-tagged CRTC2; 48 h later, CRTC2 was immunoprecipitated from the cells with anti-Flag, and Sam68 was detected in the precipitates by immunoblotting with anti-HA. In FIG. 7D, 293T cells were co-transfected with plasmids coding for Flag-tagged CRTC2 and HA-tagged WT Sam68 or HA-tagged mutations of Sam68 lacking the N-terminal domain (ΔN), the CK domain (ΔCK), proline motifs 3 and 4 (ΔP3-P4), or the C-terminal domain (ΔC); 48 h later, Sam68 and the Sam68 mutants were immunoprecipitated with anti-HA, and CRTC2 was detected in the precipitates by immunoblotting with anti-Flag. […] P62/SQSTM1 and LC3BI/II protein levels were also evaluated to indicate autophagic activity. […]
row,Molecule,change of CRTC2 protein levels in WT hepatocytes [%]
1,CC(C)C[C@@H](C=O)NC(=O)[C@H](CC(C)C)NC(=O)[C@H](CC(C)C)NC(=O)OCc1ccccc1 [MG132] (Cbz-Leu-Leu-Leu-aldehyde),≤ 10
2,bafilomycin,≤ 10
